PubChem BioAssay AID1224828 – NIAID, 2016

Purpose: 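Regulators linking TLR4 signalling to p65 nuclear translocation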 (primary screen)
Cell system: mouse RAW264.7 G9 macrophage reporter cells (GFP-p65, Tnf promoter-mCherry)
Reagent: siRNA pool against mouse genes, 100 nM
Time to read-out: 2 days siRNA transfection, then 40 min LPS before fixation
Challenge: LPS (Salmonella minnesota R595) at 10 ng/ml
Measured: 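Microscopy ratio of nuclear to perinuclear-ring GFP-p65 signal, scaled to the plate median; gene score is the average of two replicate robust z-scores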
Scale: p65 translocation robust z-score: higher = more nuclear NF-kappaB p65 after LPS than the plate median; nuclear/cytoplasmic p65 ratio: higher = more nuclear NF-kappaB p65
Hit rule: 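Active if robust z is above 3.3 (negative regulators) or below -1.56, the Tlr4 control median (positive regulators); activity score 50 or more; control wells not called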
Meaning of the calls: active = hit (p65 shift raised or lowered); inactive = no clear change
Shown is an unselected part of about 17,000 deposited reagents. 762 of them (4.5%) were called active. 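Active calls include both raised and lowered p65 entry, mostly lowered; wells with fewer than 50 cells lack a z-score.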 Raw values vary from plate to plate and are shown uncorrected. Entries without a mark were called inactive. Reagents against one gene are numbered here.

Ncor1 (nuclear receptor co-repressor 1) — p65 translocation robust z-score = -0.01; nuclear/cytoplasmic p65 ratio, rep 1 = 1.44; nuclear/cytoplasmic p65 ratio, rep 2 = 1.34; low cell count flag = enough cells to score
Niban2 (niban apoptosis regulator 2) — p65 translocation robust z-score = -0.46; nuclear/cytoplasmic p65 ratio, rep 1 = 1.38; nuclear/cytoplasmic p65 ratio, rep 2 = 1.46; low cell count flag = enough cells to score
Ildr1 (immunoglobulin-like domain containing receptor 1) — p65 translocation robust z-score = -0.03; nuclear/cytoplasmic p65 ratio, rep 1 = 1.55; nuclear/cytoplasmic p65 ratio, rep 2 = 1.55; low cell count flag = enough cells to score
Tas2r110 (taste receptor, type 2, member 110) — nuclear/cytoplasmic p65 ratio, rep 1 = 1.66; nuclear/cytoplasmic p65 ratio, rep 2 = 1.16; low cell count flag = fewer than 50 cells per well; well left out of scoring
Npas2 (neuronal PAS domain protein 2) — p65 translocation robust z-score = -0.52; nuclear/cytoplasmic p65 ratio, rep 1 = 1.36; nuclear/cytoplasmic p65 ratio, rep 2 = 1.36; low cell count flag = enough cells to score
Mbd1 (methyl-CpG binding domain protein 1) — p65 translocation robust z-score = -1.51; nuclear/cytoplasmic p65 ratio, rep 1 = 1.19; nuclear/cytoplasmic p65 ratio, rep 2 = 1.16; low cell count flag = enough cells to score
Or8d1 (olfactory receptor family 8 subfamily D member 1) — p65 translocation robust z-score = -0.23; nuclear/cytoplasmic p65 ratio, rep 1 = 1.62; nuclear/cytoplasmic p65 ratio, rep 2 = 1.4; low cell count flag = enough cells to score
Fbxl12os (F-box and leucine-rich repeat protein 12, opposite strand) — p65 translocation robust z-score = 1.9; nuclear/cytoplasmic p65 ratio, rep 1 = 1.51; nuclear/cytoplasmic p65 ratio, rep 2 = 1.82; low cell count flag = enough cells to score
Camk1d (calcium/calmodulin-dependent protein kinase ID) — p65 translocation robust z-score = 0.66; nuclear/cytoplasmic p65 ratio, rep 1 = 1.89; nuclear/cytoplasmic p65 ratio, rep 2 = 1.4; low cell count flag = enough cells to score
Rnf19a (ring finger protein 19A) — p65 translocation robust z-score = 0.58; nuclear/cytoplasmic p65 ratio, rep 1 = 1.49; nuclear/cytoplasmic p65 ratio, rep 2 = 1.29; low cell count flag = enough cells to score
Srek1 (splicing regulatory glutamine/lysine-rich protein 1) — p65 translocation robust z-score = 1.03; nuclear/cytoplasmic p65 ratio, rep 1 = 1.68; nuclear/cytoplasmic p65 ratio, rep 2 = 1.93; low cell count flag = enough cells to score
Ly6g6d (lymphocyte antigen 6 family member G6D) #1 — p65 translocation robust z-score = -1.31; nuclear/cytoplasmic p65 ratio, rep 1 = 1.55; nuclear/cytoplasmic p65 ratio, rep 2 = 1.32; low cell count flag = enough cells to score
Ly6g6d (lymphocyte antigen 6 family member G6D) #2 — p65 translocation robust z-score = -1.43; nuclear/cytoplasmic p65 ratio, rep 1 = 1.19; nuclear/cytoplasmic p65 ratio, rep 2 = 1.33; low cell count flag = enough cells to score
Rad21 (RAD21 cohesin complex component) — p65 translocation robust z-score = 0.85; nuclear/cytoplasmic p65 ratio, rep 1 = 1.79; nuclear/cytoplasmic p65 ratio, rep 2 = 1.49; low cell count flag = enough cells to score
Defb39 (defensin beta 39) — p65 translocation robust z-score = -0.12; nuclear/cytoplasmic p65 ratio, rep 1 = 1.53; nuclear/cytoplasmic p65 ratio, rep 2 = 2.12; low cell count flag = enough cells to score
Clic4 (chloride intracellular channel 4) — p65 translocation robust z-score = -0.42; nuclear/cytoplasmic p65 ratio, rep 1 = 1.47; nuclear/cytoplasmic p65 ratio, rep 2 = 1.27; low cell count flag = enough cells to score
Hps3 (HPS3, biogenesis of lysosomal organelles complex 2 subunit 1) — p65 translocation robust z-score = 0.91; nuclear/cytoplasmic p65 ratio, rep 1 = 1.5; nuclear/cytoplasmic p65 ratio, rep 2 = 1.54; low cell count flag = enough cells to score
Igsf21 (immunoglobulin superfamily, member 21) — nuclear/cytoplasmic p65 ratio, rep 1 = 1.74; nuclear/cytoplasmic p65 ratio, rep 2 = 1.8; low cell count flag = fewer than 50 cells per well; well left out of scoring
Macroh2a3 (macroH2A.3 histone) — p65 translocation robust z-score = 0.43; nuclear/cytoplasmic p65 ratio, rep 1 = 1.57; nuclear/cytoplasmic p65 ratio, rep 2 = 1.62; low cell count flag = enough cells to score
Spsb4 (splA/ryanodine receptor domain and SOCS box containing 4) — nuclear/cytoplasmic p65 ratio, rep 1 = 1.39; nuclear/cytoplasmic p65 ratio, rep 2 = 1.13; low cell count flag = fewer than 50 cells per well; well left out of scoring
Arln (allregulin) — nuclear/cytoplasmic p65 ratio, rep 1 = 1.29; nuclear/cytoplasmic p65 ratio, rep 2 = 1.18; low cell count flag = fewer than 50 cells per well; well left out of scoring
Fgf12 (fibroblast growth factor 12) — p65 translocation robust z-score = 0.19; nuclear/cytoplasmic p65 ratio, rep 1 = 1.4; nuclear/cytoplasmic p65 ratio, rep 2 = 1.46; low cell count flag = enough cells to score
Clpb (ClpB caseinolytic peptidase B) — p65 translocation robust z-score = -0.21; nuclear/cytoplasmic p65 ratio, rep 1 = 1.41; nuclear/cytoplasmic p65 ratio, rep 2 = 1.2; low cell count flag = enough cells to score
Igsf11 (immunoglobulin superfamily, member 11) — p65 translocation robust z-score = -0.67; nuclear/cytoplasmic p65 ratio, rep 1 = 1.48; nuclear/cytoplasmic p65 ratio, rep 2 = 1.32; low cell count flag = enough cells to score
Or4c112 (olfactory receptor family 4 subfamily C member 112) — p65 translocation robust z-score = -1.68 (active); nuclear/cytoplasmic p65 ratio, rep 1 = 1.41; nuclear/cytoplasmic p65 ratio, rep 2 = 1.32; low cell count flag = enough cells to score
Prom1 (prominin 1) — p65 translocation robust z-score = 0.68; nuclear/cytoplasmic p65 ratio, rep 1 = 1.61; nuclear/cytoplasmic p65 ratio, rep 2 = 1.48; low cell count flag = enough cells to score
Sfi1 (Sfi1 homolog, spindle assembly associated (yeast)) — nuclear/cytoplasmic p65 ratio, rep 1 = 1.3; nuclear/cytoplasmic p65 ratio, rep 2 = 1.03; low cell count flag = fewer than 50 cells per well; well left out of scoring
